Values of other authors as cited in patent publication US9309514B2, “G protein-coupled purinergic receptor Gpr17 mediates orexigenic effects of FoxO1 in AgRP neurons” (THE TRUSTEES OF COLUMBIA UNIVERSITY IN THE CITY OF NEW YORK, priority 2012, dated 2016).

Test system: platelet
Conditions: cited from earlier work

CSCCNc1nc(SCCC(F)(F)F)nc2c1ncn2[C@@H]1O[C@H](COP(=O)(O)OP(=O)(O)C(Cl)(Cl)P(=O)(O)O)[C@@H](O)[C@H]1O [cangrelor, [dichloro-[[[(2R,3S,4R,5R)-3,4-dihydroxy-5-[6-(2-methylsulfanylethylamino)-2-(3,3,3-trifluoropropylsulfanyl)purin-9-yl]oxolan-2-yl]methoxy-hydroxyphosphoryl]oxy-hydroxyphosphoryl]methyl]phosphonic acid]
time to peak inhibition (infusion of 4-μg/kg per minute): 15 min | time to return to normal platelet function (patients treated with cangrelor as an anticoagulant): 60 min
